# Source: the supplement of paper PMC12819154, “High-throughput peptide-centric local stability assay extends protein–ligand identification to membrane proteins, tissues and bacteria” (Nature Structural & Molecular Biology, 2025)
# By UniProt entry, the sequences of proteins in these tests, tags left out. Where a name states a change or a piece, a line headed by the entry shows the natural chain unless it says otherwise.
# UniProt Q15041, whole entry: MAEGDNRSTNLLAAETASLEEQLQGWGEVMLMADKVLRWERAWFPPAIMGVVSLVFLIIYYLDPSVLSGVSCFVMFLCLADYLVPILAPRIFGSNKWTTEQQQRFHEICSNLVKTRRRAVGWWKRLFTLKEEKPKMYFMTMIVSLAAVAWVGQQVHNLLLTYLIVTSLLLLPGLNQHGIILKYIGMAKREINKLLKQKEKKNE
# UniProt Q15648, whole entry: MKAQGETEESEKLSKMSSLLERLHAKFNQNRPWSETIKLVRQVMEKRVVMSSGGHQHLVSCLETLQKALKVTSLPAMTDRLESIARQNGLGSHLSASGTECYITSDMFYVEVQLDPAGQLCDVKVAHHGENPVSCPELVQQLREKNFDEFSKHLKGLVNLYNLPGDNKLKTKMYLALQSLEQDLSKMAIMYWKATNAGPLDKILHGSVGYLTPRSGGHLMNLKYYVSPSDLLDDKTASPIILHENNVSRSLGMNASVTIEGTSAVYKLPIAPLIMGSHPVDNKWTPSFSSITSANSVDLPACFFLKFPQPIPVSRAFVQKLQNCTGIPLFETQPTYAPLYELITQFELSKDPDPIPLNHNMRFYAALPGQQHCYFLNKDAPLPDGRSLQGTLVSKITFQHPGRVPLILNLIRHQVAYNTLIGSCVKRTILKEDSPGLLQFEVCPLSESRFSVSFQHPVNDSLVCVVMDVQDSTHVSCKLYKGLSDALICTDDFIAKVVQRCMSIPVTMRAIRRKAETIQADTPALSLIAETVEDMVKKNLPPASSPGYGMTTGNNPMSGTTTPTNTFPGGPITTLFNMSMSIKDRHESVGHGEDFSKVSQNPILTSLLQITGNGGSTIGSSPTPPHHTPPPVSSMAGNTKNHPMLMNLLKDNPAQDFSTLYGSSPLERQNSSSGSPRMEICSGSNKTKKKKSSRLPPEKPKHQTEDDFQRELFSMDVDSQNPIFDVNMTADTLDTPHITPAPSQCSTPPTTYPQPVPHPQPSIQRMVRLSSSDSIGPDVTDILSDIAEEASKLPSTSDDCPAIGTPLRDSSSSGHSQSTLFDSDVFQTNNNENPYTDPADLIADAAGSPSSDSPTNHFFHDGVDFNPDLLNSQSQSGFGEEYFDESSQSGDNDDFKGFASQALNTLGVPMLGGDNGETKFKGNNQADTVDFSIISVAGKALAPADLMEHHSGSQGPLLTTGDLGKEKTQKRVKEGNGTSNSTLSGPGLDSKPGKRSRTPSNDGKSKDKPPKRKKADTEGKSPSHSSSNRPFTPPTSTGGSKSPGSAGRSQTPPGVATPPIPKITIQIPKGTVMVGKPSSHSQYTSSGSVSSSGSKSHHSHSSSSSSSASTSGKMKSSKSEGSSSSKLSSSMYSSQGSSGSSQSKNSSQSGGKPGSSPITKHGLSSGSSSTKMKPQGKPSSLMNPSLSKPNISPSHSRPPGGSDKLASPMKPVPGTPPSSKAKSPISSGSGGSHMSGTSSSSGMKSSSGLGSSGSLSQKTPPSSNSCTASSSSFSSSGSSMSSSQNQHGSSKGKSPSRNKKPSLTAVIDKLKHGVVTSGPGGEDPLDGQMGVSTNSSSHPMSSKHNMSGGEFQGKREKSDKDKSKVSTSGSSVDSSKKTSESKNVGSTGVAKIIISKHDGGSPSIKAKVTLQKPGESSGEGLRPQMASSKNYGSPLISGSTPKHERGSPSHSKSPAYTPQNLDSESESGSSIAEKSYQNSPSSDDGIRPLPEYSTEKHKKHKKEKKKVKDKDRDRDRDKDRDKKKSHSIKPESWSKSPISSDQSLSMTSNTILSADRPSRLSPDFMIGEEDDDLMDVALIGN
# UniProt Q15633: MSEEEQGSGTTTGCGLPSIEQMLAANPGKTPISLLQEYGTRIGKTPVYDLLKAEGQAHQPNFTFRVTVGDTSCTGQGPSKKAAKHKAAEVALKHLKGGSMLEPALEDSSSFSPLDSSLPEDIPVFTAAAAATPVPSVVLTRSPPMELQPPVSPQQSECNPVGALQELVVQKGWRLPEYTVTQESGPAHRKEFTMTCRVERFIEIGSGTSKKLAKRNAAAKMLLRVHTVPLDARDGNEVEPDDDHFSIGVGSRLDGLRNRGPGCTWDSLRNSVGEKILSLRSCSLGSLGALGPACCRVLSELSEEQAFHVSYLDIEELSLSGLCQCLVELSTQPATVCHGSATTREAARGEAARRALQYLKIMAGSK
# UniProt Q15599: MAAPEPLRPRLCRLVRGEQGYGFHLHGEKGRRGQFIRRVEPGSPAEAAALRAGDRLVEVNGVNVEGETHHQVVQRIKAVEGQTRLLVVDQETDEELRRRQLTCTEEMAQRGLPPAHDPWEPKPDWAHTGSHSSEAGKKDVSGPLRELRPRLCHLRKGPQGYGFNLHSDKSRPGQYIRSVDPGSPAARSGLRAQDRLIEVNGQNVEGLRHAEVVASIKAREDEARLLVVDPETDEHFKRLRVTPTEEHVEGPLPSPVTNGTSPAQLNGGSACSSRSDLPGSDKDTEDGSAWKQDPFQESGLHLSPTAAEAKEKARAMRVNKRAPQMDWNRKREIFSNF
# UniProt Q2NKX8: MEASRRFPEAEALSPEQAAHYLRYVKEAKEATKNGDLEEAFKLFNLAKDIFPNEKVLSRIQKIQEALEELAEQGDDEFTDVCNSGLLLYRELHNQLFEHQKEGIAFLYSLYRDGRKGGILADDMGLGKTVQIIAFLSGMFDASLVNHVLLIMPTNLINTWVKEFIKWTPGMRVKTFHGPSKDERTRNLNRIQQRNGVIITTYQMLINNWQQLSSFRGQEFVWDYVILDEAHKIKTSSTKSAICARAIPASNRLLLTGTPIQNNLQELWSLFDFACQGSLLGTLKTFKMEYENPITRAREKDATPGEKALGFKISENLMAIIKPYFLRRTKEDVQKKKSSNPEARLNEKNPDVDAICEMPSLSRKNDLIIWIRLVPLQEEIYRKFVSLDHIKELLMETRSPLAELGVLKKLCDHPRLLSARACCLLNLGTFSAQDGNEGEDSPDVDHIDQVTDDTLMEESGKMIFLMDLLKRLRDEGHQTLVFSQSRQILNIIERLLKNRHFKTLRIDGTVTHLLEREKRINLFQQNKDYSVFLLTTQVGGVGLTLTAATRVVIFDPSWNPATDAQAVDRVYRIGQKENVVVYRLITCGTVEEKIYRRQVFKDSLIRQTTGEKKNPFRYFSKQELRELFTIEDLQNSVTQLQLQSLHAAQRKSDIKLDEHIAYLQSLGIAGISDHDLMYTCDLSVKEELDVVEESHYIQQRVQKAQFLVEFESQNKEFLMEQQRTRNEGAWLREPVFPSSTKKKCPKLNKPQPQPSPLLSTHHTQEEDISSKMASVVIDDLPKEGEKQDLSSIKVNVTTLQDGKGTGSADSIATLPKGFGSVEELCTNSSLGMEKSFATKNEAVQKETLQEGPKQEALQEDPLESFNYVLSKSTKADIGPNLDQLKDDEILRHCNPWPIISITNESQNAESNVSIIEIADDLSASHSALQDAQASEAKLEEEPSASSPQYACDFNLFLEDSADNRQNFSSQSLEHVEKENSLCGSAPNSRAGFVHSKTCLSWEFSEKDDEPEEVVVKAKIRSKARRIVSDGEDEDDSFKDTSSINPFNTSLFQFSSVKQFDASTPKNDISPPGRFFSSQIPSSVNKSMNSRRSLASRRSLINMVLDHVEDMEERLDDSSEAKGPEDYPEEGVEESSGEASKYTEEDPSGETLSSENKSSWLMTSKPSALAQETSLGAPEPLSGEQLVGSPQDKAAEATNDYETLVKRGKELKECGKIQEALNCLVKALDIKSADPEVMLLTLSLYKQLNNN
# UniProt Q15058: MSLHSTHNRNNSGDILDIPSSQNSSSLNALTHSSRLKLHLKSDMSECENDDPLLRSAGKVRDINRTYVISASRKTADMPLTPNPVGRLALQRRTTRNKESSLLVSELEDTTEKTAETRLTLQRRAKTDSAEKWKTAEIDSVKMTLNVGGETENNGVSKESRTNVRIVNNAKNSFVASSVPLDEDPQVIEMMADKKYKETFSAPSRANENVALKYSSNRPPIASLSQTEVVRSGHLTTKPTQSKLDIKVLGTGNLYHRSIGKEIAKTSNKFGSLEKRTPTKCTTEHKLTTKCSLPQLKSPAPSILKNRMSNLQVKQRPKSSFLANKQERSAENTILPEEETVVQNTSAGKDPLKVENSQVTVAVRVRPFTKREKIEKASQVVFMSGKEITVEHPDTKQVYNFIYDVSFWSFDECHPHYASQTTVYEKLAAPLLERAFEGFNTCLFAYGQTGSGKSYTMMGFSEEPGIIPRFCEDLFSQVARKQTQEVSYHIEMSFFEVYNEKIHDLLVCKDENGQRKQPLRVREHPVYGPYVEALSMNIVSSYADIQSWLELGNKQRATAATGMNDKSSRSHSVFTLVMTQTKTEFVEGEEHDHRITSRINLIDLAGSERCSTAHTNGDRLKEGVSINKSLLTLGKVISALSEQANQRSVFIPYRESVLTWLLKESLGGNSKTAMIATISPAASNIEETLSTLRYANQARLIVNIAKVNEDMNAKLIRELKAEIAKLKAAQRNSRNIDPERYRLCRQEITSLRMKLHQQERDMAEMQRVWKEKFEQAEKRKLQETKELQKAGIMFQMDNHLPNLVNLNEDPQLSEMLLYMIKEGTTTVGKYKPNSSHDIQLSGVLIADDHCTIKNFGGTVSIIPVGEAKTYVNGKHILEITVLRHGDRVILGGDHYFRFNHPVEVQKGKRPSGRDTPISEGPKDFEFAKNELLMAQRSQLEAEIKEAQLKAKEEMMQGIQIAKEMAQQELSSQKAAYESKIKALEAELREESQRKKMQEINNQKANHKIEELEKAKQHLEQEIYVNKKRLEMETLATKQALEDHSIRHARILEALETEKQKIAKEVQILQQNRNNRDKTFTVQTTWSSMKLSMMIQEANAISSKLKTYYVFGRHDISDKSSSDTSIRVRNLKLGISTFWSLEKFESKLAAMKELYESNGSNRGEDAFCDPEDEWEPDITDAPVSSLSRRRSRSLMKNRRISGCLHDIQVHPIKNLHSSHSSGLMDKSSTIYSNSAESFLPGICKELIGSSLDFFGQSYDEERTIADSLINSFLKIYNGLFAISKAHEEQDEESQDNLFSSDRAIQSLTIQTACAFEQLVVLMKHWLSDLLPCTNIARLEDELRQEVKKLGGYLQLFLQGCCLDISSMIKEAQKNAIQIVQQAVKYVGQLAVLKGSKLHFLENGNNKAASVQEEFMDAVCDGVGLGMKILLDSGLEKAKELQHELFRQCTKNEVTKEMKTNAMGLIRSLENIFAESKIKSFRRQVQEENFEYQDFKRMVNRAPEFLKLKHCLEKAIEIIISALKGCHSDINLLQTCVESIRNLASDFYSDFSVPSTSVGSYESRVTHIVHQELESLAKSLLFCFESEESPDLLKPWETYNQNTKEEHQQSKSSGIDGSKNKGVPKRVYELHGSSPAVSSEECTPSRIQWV
# UniProt Q16760: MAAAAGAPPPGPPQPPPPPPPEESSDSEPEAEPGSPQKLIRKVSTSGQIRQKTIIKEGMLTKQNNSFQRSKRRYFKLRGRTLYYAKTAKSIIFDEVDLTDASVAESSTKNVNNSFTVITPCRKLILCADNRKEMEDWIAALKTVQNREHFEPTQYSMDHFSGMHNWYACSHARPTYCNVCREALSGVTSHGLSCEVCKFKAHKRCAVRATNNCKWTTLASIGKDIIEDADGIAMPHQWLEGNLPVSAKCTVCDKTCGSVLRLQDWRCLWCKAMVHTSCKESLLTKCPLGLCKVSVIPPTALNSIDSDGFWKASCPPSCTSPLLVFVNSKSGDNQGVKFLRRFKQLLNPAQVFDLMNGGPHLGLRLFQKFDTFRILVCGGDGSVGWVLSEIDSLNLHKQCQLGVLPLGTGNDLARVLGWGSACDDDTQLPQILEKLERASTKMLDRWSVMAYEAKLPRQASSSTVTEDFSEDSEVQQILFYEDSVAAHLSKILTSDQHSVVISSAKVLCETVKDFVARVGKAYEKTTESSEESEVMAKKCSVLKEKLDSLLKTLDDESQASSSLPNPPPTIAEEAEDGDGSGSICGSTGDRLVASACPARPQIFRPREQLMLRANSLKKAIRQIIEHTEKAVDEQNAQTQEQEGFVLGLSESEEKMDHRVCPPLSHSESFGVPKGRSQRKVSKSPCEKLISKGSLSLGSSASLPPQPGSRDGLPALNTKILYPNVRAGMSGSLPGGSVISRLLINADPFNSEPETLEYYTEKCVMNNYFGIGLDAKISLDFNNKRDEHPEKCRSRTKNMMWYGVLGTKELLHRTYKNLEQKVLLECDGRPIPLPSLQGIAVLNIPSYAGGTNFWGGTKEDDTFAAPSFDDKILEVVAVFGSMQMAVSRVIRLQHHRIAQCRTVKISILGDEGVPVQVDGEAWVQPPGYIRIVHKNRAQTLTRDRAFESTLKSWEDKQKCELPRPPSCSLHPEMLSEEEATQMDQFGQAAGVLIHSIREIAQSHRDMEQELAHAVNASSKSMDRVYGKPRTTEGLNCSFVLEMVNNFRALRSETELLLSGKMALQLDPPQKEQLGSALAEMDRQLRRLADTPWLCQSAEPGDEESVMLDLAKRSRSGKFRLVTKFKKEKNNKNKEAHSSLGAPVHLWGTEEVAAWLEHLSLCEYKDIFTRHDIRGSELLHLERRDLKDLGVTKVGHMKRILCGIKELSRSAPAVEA
# The list shows a part of the results. Most entries show no effect beyond the scatter of the controls.
# Compound: Cc1nc(Nc2ncc(C(=O)Nc3c(C)cccc3Cl)s2)cc(N2CCN(CCO)CC2)n1 [dasatinib]
# Assay: log2 fold change of tryptic peptide abundance, ligand vs vehicle (limited proteolysis) (log2 ratio); higher = more trypsin-susceptible (destabilized)
# Settings: ligand concentration: 5 uM; sample: K562 cleared lysate
row,Target,log2 fold change
1,"TRIP6 (peptide sequence: VFHVGCFVCSTCRAQLR, peptide start residue: 299) (UniProt Q15654)",0.288
2,"ARHGEF6 (peptide sequence: LIIEETR, peptide start residue: 696) (UniProt Q15052)",0.163
3,"ASTE1 (peptide sequence: TILPTQVENMQQPNAHR, peptide start residue: 351) (UniProt Q2TB18)",-0.662
4,"ARL6IP1 (peptide sequence: FHEICSNLVK, peptide start residue: 105) (UniProt Q15041)",-0.129
5,"INF2 (peptide sequence: CSNEEVAAMIR, peptide start residue: 650) (UniProt Q27J81)",0.73
6,"TAF1A (peptide sequence: TSANISALIK, peptide start residue: 222) (UniProt Q15573)",0.11
7,"UniProt Q3KP31 (peptide sequence: LCEGKEGSQCAENFSPNLSVTKK, peptide start residue: 71)",0.291
8,"MED1 (peptide sequence: ILHGSVGYLTPR, peptide start residue: 203) (UniProt Q15648)",-0.533
9,"UniProt Q15406 (peptide sequence: TCLICGDR, peptide start residue: 59)",0.22
10,"HERC1 (peptide sequence: VLAENGHNSDCASSPVVHEDVEMR, peptide start residue: 2537) (UniProt Q15751)",-0.706
11,"C2orf76 (peptide sequence: EFIVFLK, peptide start residue: 37) (UniProt Q3KRA6)",0.436
12,"TARBP2 (peptide sequence: FIEIGSGTSK, peptide start residue: 201) (UniProt Q15633)",-0.414
13,"TATDN3 (peptide sequence: SAGRPTINLLQEQGAEK, peptide start residue: 150) (UniProt Q17R31)",-0.0126
14,"HAGH (peptide sequence: HVEPGNAAIR, peptide start residue: 233) (UniProt Q16775)",0.0113
15,"FSCN1 (peptide sequence: WSLQSEAHR, peptide start residue: 101) (UniProt Q16658)",0.356
16,"PDIA6 (peptide sequence: LADKYKK, peptide start residue: 323) (UniProt Q15084)",-0.566
17,"UniProt Q3B7T1 (peptide sequence: QPLCQYR, peptide start residue: 1016)",0.435
18,"UniProt Q2KHM9 (peptide sequence: VNSTTEANIHLK, peptide start residue: 698)",-1.29
19,"SLC9A3R2 (peptide sequence: AAPEPLRPR, peptide start residue: 2) (UniProt Q15599)",0.199
20,"UniProt Q3BBV2 (peptide sequence: HVGFSLDVGEIEKK, peptide start residue: 817)",-0.0955
21,"ERCC6L (peptide sequence: DIFPNEK, peptide start residue: 49) (UniProt Q2NKX8)",-0.076
22,"TOMM34 (peptide sequence: AACHLKDGNCR, peptide start residue: 58) (UniProt Q15785)",0.278
23,"KIF14 (peptide sequence: NKESSLLVSELEDTTEKTAETR, peptide start residue: 97) (UniProt Q15058)",0.496
24,"UniProt Q16760 (peptide sequence: VLCETVKDFVAR, peptide start residue: 506)",-0.416
25,"SS18 (peptide sequence: QRGKGEITPAAIQK, peptide start residue: 10) (UniProt Q15532)",-0.689
26,"HNRNPUL2 (peptide sequence: KEVEGDDVPESIMLEMK, peptide start residue: 577) (UniProt Q1KMD3)",-0.131
27,"TRADD (peptide sequence: NLKCGSGAR, peptide start residue: 161) (UniProt Q15628)",-0.169

# Another view of part of the listing above:
row | Target | log2 fold change
7 | UniProt Q3KP31 (peptide sequence: LCEGKEGSQCAENFSPNLSVTKK, peptide start residue: 71) | 0.291
10 | HERC1 (peptide sequence: VLAENGHNSDCASSPVVHEDVEMR, peptide start residue: 2537) (UniProt Q15751) | -0.706
